In PMC10421740:
The direction of at least one scale is not stated here. Where a protein sequence is shown, tags need not be part of it.

Key:
[1] = biological target: T1, KLF6 reprogrammed with array CDKN1C_125 F3-8 (synthetic construct) (UniProt Q99612); assay: binding assay; conditions: Zn; HEK293T, RT-qPCR 3 days after transfection; residues 1-199; scale: relative expression
T1 sequence: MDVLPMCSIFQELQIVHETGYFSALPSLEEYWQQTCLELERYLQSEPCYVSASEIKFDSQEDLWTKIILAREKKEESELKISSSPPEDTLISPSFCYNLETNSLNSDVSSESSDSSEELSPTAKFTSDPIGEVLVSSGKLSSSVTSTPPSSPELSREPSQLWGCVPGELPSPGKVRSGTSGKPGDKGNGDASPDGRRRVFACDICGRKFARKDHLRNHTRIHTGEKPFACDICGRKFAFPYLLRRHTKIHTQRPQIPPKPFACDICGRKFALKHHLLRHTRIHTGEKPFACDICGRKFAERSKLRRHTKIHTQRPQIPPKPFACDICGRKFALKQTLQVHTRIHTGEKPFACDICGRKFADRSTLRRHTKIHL

[2] = biological target: T2, KLF6 reprogrammed with array CDKN1C_200 F1-6 (synthetic construct) (UniProt Q99612); assay: binding assay; conditions: Zn; HEK293T, RT-qPCR 3 days after transfection; residues 1-199; scale: relative expression
T2 sequence: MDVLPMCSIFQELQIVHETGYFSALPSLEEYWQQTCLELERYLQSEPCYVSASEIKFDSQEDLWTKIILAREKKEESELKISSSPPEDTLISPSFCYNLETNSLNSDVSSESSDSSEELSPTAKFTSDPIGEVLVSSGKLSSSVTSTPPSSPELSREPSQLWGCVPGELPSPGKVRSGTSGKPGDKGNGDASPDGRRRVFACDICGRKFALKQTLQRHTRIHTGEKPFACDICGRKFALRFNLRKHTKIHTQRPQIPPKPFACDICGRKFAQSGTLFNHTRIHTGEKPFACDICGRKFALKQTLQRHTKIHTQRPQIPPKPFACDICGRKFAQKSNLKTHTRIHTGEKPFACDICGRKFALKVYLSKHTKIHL

Sequence | binding signal [1] | binding signal [2]
GCCAATGGGCGGTGCGCGGGGGCCGGGC (double strand) [CDKN1C_125] | 0.4 | –
TTGAAACTGAAAATACTACATTATGCTA (double strand) [CDKN1C_200] | – | 1.3
